# Assay results: publication PMC7507032
# These are yes or no findings as the source states them, for the method shown. Binding seen in cells or lysates may run through a third protein. Where a sequence is shown, tags or fusion partners need not be part of it.
# Target: T1, Myc-TEX10 (testis expressed 10) (UniProt Q9NXF1)
# T1 sequence: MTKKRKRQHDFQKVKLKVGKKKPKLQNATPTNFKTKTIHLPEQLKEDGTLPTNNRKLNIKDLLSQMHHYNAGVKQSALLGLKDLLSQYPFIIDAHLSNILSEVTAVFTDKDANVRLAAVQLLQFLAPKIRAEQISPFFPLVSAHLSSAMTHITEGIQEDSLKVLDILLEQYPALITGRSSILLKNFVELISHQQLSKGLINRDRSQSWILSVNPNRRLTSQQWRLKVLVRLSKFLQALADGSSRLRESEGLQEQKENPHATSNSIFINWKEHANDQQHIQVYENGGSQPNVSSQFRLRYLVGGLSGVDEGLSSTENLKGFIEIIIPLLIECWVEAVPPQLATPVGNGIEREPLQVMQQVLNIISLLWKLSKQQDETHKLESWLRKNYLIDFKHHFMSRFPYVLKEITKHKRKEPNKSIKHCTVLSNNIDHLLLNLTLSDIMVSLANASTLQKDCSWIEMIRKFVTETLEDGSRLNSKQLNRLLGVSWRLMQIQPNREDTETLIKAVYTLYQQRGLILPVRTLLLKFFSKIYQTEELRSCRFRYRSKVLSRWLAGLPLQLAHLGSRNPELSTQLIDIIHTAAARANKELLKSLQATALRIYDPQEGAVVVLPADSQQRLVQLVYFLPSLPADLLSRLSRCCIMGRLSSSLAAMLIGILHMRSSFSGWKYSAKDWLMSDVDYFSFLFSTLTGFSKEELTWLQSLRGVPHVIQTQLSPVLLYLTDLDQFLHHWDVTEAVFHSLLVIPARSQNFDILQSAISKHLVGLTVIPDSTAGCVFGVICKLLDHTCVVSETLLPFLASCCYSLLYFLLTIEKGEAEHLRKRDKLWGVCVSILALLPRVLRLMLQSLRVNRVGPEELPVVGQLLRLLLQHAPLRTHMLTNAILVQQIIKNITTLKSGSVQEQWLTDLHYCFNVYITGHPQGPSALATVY
# Test: co-IP; HEK293T cells cotransfected with Flag-tagged proteins and Myc-TEX10; lysates immunoprecipitated with anti-Myc, immunoblot with anti-Flag and anti-Myc; antibody 1 h at 4 °C, protein G beads overnight
substance,measurement,value
Flag-RELA-C (transcription activation domain only) (domain or fragment),binding,no binding
